# Assay results published in patent US4608378A, “Tetrahydroisoxazolo[4,5-c]pyridine derivatives useful in the treatment of malfunctions of the acetylcholine or muscarinic systems” (H. Lundbeck A/S, priority 1983, dated 1986).
# For at least one compound, name, drawing or mass did not settle the structure.
# Biological target: muscarinic cholinergic receptors
# Assay: 3H-PrBCM binding to muscarinic cholinergic receptors (brain)
# Details: rat whole brain minus cerebellum; 1.5 nM 3H-PrBCM, 30° C.
# Description: ^3 --H-PrBCM binding to muscarinic cholinergic receptors
# Whole brain minus cerebellum of a rat was homogenized in 10 vol icecold 0.32M sucrose, pH 7.4. The homogenate was centrifuged at 600 g for 10 minutes and the supernatant at 25000 g for 55 min. at 4° C. with rehomogenization of the pellet in 0.32M sucrose. Incubation tubes in triplicate received at 30° C. test substance and tissue suspension. After 10 min. of incubation ligand (NEN,28-44 Ci/mmol) was added (final conc. of ^3 H-PrBCM: 1.5 nM). After 15 min. of incubation the reaction was stopped by addition of sodiumthiosulphate. The samples were filtered through Whatman GF/B filters (25 mm). The tubes and filters were rinsed twice with buffer. Non-specific binding was determined in the presence of 2.5 μM atropine. IC50 values were calculated by log probit analysis.
compound,measurement,value
"Oc1noc2c1CNCC2 [THPO, 3-Hydroxy-4,5,6,7-tetrahydroisoxazolo[4,5-c]pyridinium bromide, reference compound]",IC50,> 50 µM
